Hit rate of the full screen: of about 52,000 sequences, about 210 (0.4%) were called active.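 Rule for the calls: active = gene whose silencing raises cell survival under the drug, median off-target-corrected z-score across its silencing RNAs 2 or more; inactive = the rest.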 Some of the results follow.

The assay in a line: Resistance to Poly (ADP-Ribose) Polymerase inhibitor: Gene Identification via Genome-wide siRNA Screen. The note with it: mouse BRCA2 R2336H ES cells, olaparib, CellTiter-Glo viability; stronger effect = higher value. In a few lines: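 Genome-wide siRNA screen (3 siRNAs/gene, 20 nM) in mouse ES cells carrying hypomorphic BRCA2 R2336H; olaparib 500 nM added 48 h post-transfection, CellTiter-Glo viability 72 h later. Normalized to plate-median negative control; MAD z-scores, gene median, seed-adjusted.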
In the case of “CGUAUGUAUGCCAACCUGGTT against D15Wsu169e”, the z-score is inactive: 0.555. As for GGGAAGAUGUGAUGUCUUUTT against Rab7l1, the z-score is inactive: -0.392. The figure for “GGAAUUUAGGAAGCAAAAGTT against 2610510H01Rik” is inactive: 2.16; for GGAAUCAGUUUCAGAGAAUTT against Mtf2 it is inactive: 0.116.

Turning to GGAAGAGUGUCUAAAUGUATT against BC018472, the z-score is inactive: -1.62.

For GACCAAGUUCAAAAUUCGATT against Gp49a, the z-score is inactive: 0.0957.

GGAUAAAGCAUCAGACAAATT against Hmgn1: the z-score is inactive: -0.25.

In the case of GGCCUUAUUGAUAAGUCUUTT against Pte2a, the z-score was inactive: -1.04. The figure for GGAUGUCUUUGUUCACCAGTT against Ybx2 is inactive: 0.773; for GGAAGACGGGCAUCAUGAATT against Srf it is inactive: 1.66.

Take GCACCAGUUACAGAAUGGATT against Zfp192: the z-score is inactive: -0.722. As to GGUUUUAAGUUCUAGGGAATT against Olfr1288, the z-score is inactive: -0.079. The figure for “GGCUGAUAUGACCAACUUUTT against Gt(ROSA)26asSor” is inactive: 0.0158.

For GGUAUCUGACCUCUUAAAATT against Olr1, the z-score was inactive: -0.359. The figure for GGACGGCAAAGCGUACUGUTT against Pxn is inactive: 0.826; for GGACAUCUGUGUUAAAUUUTT against Npy1r it is inactive: 1.39; for GGCCCAUAUUUUAUUACCGTT against Galns it is inactive: 1.05. The same measure for GCUAUAUUGUUAGCACACATT against Hmgn2: inactive: 1.36. The figure for GGAGCAGUUGUGUUUAACATT against Psg17 is inactive: -1.11; for “GGAGGAUUCAUGCUUUGUUTT against 4932411A10Rik” it is inactive: -0.794. CGCUAUCUCGUUCAGGAUATT against Timm23: the z-score was inactive: 1.44.

Turning to CCUAGAAAUCAGUGAAUUUTT against Garnl1, the z-score was inactive: 0.183. The same measure for GCGGGACACCAUCAAUCCATT against Sytl4: inactive: 1.35. The figure for GCUUAGAUCUUACCCACCCTT against Ptcra is inactive: 1.29. The same measure for GGAUCAAGGAAGCUCUCAGTT against Retnlb: inactive: -0.97; for “GGAGAAUUGCUUGAAUACUTT against D3Ertd300e”: inactive: 1.09. Consider CCGUGAAUUUUCAUUCACATT against Prim1, for which the z-score was inactive: -0.124. The figure for GGUAGAGCAGAGCCUCCAUTT against Olfr555 is inactive: -0.0105; for GCUUGUGGAUUCGAUUUGGTT against Gtf3c5 it is inactive: -0.0929.

With “CCGGUUGAGUUCACAGAAUTT against 2610204G22Rik”, the z-score is inactive: -3.34.

With CCCAAUACCCAGGACUCAATT against Zfp51, the z-score was inactive: -1.82. As to GGAAGAAUCGUUUAUGACATT against Ppp4r2, the z-score is inactive: -0.233. The same measure for “GGGUUUGGUCGUAAACAGCTT against 0610025L06Rik”: inactive: 0.779; for GGAUGUGUGAAUCUACUGATT against Gpm6a: inactive: 1.48. GGGUGAGUAUAUGAUUCCUTT against Ctsd: the z-score is inactive: 0.265. The same measure for GGCGAAUUACUUGUGUUGUTT against Pvrl3: inactive: 0.354; for GCCUUGACCUGUCUUUCAATT against Tlr2: inactive: 0.541; for CCCACAUCCCUAAGUUGUGTT against BC050196: inactive: -0.808.

With GGCCAUGAGUCACAUGCUATT against Hcn3, the z-score is inactive: 0.802. The figure for GGUGAGGAGCUGGAUAACATT against Smc4l1 is inactive: -1.5; for GUCUACAUCAACAUGCCUGTT against Hcst it is inactive: -0.491; for CGAAUAUGAUACCAGAAAGTT against Il5ra it is inactive: -0.172. The same measure for CCCUCUACAUGAUGACUGUTT against Olfr1280: inactive: 0.595.

Take GGGCCUUAUACAUUUUUCATT against Calm1: the z-score was inactive: 0.581. The figure for GGUGUUCAAAAUUCCUGCCTT against Mbl2 is inactive: 0.236; for CGGCAACUCAACAAGCUUATT against Cbfa2t3h it is inactive: -0.644. The figure for GCUAAUAGGAGGACUUGACTT against Txnl2 is inactive: 1.92; for GGACGUGCUUACAUUGUACTT against Pcdhb9 it is inactive: -0.25.

In the case of GCCUUGGCUGAAACUCUCATT against Cybb, the z-score is inactive: 0.704. The figure for GGAUCCUUCUCUAAGGGCCTT against Dgcr8 is inactive: -0.713; for GGACCAGCUUGAAGCUGAATT against Arl6ip2 it is inactive: -1.65.

Take GGCAGAAAGCUGAUGAAGCTT against Pcx: the z-score was inactive: -0.416. The figure for GCCUAUUGUGGUAUUACAUTT against Cyp2c40 is inactive: -2.39. The same measure for “GGAGAACUGAAGAAUCCAATT against 1110030J09Rik”: inactive: 0.894. The same measure for GCUAAUGUGGAGGACUCACTT against Chml: inactive: -1.99; for GGACUCGAGCACCAAAAAGTT against Dyrk1b: inactive: 0.158. As to GGUGUUCCUGUCUUUCAUGTT against Chordc1, the z-score is inactive: -1.35. The figure for GGCCAUGUGAAGAUGGUGGTT against Ank1 is inactive: 1.35.

GCCGUUAGGAAAAAACGAUTT against Ckap1: the z-score was inactive: 0.557.

For the sequence GGUUAAGUCUUUAAAGAAGTT against Ick, the z-score is inactive: 1.23.

Consider GGAUUAAAGGAAGUGACUGTT against Oscar, for which the z-score was inactive: -0.531. The same measure for GCGCAAUGCAGAACUACGATT against Tac1: inactive: 0.068; for GAGUUCAUCCCGUAUCACCTT against Cox6a2: inactive: 0.833; for GGAUAUGACAGCUUUCUUUTT against T2: inactive: -0.22. The same measure for GCAGUGGUGUAAACCUCAUTT against Pde3b: inactive: -0.519; for CGGAGAACCAACCUAAGUUTT against Dok1: inactive: -0.528; for GGUGCAUGCACAAGUGUUUTT against Esrra: inactive: 1.16. On to GGGUAAUGAGCUUGGUGAATT against Zfp53, for which the z-score is inactive: -0.417. The same measure for “CGGAGUUGAAGUCACAUACTT against E230031K19”: inactive: -1.76; for GGAUGACCAACAACUAAAGTT against Sytl2: inactive: -0.403; for GGUCUUUGUCAUCAAAGGUTT against Xtrp3s1: inactive: 0.539. The figure for GGCAGAAUGCACAGAACCUTT against Cpz is inactive: -1.15; for GCCUCUUUGUAAAAAUUCUTT against Atp6v0b it is inactive: -0.521.

In the case of CGAUGAUCUUACACUACCCTT against Irx6, the z-score was inactive: -0.771. The figure for GCAGCUCAAUUAGAGUCCATT against Gart is inactive: -0.027; for GGACAACCAAGGAAGAAACTT against BC049635 it is inactive: 0.289; for “GGACUGGGAAGAUGAUGAATT against 1110012L19Rik” it is inactive: -1.65.

As to GGUGUAGUAGUGAACUUGATT against Trib1, the z-score was inactive: 1.19.

On to “GCUCUACUCCUUACCUAGUTT against 2610200G18Rik”, for which the z-score is inactive: 0.517. The figure for GGUGUUCUUUGACAGUGCCTT against Atp5d is inactive: -1.33; for GGAUUUAUGCAUUUCUCCATT against Exosc8 it is inactive: -1.07. The figure for GCACCGAGACUUGUCAGAGTT against Rab36 is inactive: 1.05; for GGACAUUGUGACAUCAUGUTT against Diras2 it is inactive: 0.251; for GGAAUUCAUCUACAGAGAATT against Dpp6 it is inactive: 1.21. The same measure for GGCCUUCUGUGUGGUCUAUTT against Kcnk7: inactive: -2.4; for GGCUUUCCUAGGGAUGUCUTT against S100a3: inactive: 1.17; for CGAGCUUAAUCAUUGCCUGTT against Eprs: inactive: -1.6. Turning to GGAUGUGGAAGAAUUUCUGTT against Mrpl49, the z-score was inactive: 0.271. Consider ACAUUUAUCACGACCCUUCTT against Olfr777, for which the z-score was inactive: -0.887. The figure for GGAAGUGAUCCGAAAAUCATT against Mbd2 is inactive: -0.138. The figure for “GCUUGUCCAAUGCCUAUUCTT against 5430428G01Rik” is inactive: -1.7. The same measure for CGUCGGUUUCUCCCUGAAATT against Tdpoz5: inactive: -1.32; for GGAGAGAAAAUCUUCCAUUTT against Pramel6: inactive: 0.489. As for GGCAGAAACCCUUCUAUGUTT against Bmp8a, the z-score was inactive: 0.528. The figure for “GGGCAUUUCAUAAGCUACATT against 4932435O22Rik” is inactive: -0.0355; for “GGUGUUGCUGGUGAAGGACTT against 2810401C16Rik” it is inactive: -1.01; for GGCCUUUGAGGUCUACAUATT against Icam2 it is inactive: -1.48. The figure for GGAACACCAACCAGAAUAATT against Serpina3n is inactive: -0.564.

Take GCGUGCUACCUGAAUAAGATT against Hist3h2ba: the z-score is inactive: 0.0844.

Turning to GGGAAGAUCAUUGUUUAUATT against Pgcp, the z-score was inactive: 1.73.

As for GGAAACCACUUGAUCAGCATT against Ube4a, the z-score is inactive: -0.0419. The figure for GGUUGGAUUCCUGAUAUUATT against Dbhl1 is inactive: -1.48; for “GGGAAGGUGGCCUACAUCATT against 1110005F07Rik” it is inactive: 1.69; for “GGCGCACAUAUCUGAUCUUTT against 1200002G13Rik” it is inactive: 1.11. The same measure for GGAUCAUCUAUACAGCACATT against Tgfb1i1: inactive: 0.894.

These data come from PubChem BioAssay AID1347423 (Functional Genomics Laboratory (NCATS/FGL), 2020).
